These results are taken from publication PMC6016456, “Human DHEA sulfation requires direct interaction between PAPS synthase 2 and DHEA sulfotransferase SULT2A1” (The Journal of Biological Chemistry, 2018).

These are yes or no findings as the source states them, for the method shown. Binding seen in cells or lysates may run through a third protein. Some binding calls cover weakened binding; strength is not graded here.

The assay deals with T1, PAPS synthase 1 (human (endogenous in HepG2)) (UniProt O43252).
T1 sequence: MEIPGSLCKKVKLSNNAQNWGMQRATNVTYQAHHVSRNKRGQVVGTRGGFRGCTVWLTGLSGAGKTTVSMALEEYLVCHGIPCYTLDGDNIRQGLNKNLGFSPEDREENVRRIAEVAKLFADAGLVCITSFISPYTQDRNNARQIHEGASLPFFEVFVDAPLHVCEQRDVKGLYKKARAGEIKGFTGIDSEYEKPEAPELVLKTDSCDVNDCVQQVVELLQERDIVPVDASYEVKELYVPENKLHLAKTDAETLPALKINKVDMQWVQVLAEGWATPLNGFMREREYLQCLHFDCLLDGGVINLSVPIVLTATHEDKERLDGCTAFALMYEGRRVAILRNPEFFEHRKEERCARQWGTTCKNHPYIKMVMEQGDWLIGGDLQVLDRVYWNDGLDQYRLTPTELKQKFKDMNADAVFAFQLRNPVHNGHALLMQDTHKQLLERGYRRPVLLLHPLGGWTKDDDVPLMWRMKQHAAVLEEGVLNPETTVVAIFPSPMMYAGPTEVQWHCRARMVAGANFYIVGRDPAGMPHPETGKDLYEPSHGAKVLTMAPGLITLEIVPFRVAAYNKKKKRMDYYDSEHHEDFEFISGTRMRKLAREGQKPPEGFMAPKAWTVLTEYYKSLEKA
The experiment in a line: proximity ligation; endogenous proteins in fixed, permeabilized HepG2 cells; mouse monoclonal antibodies for PAPSS1 or PAPSS2 and a rabbit polyclonal SULT2A1 antibody; Duolink In Situ PLA; foci per cell counted with CellProfiler, at least 400 cells from three experiments.

B1: DHEA sulfotransferase SULT2A1 (enzyme, UniProt Q06520 1-285)
chain: MSDDFLWFEGIAFPTMGFRSETLRKVRDEFVIRDEDVIILTYPKSGTNWLAEILCLMHSKGDAKWIQSVPIWERSPWVESEIGYTALSETESPRLFSSHLPIQLFPKSFFSSKAKVIYLMRNPRDVLVSGYFFWKNMKFIKKPKSWEEYFEWFCQGTVLYGSWFDHIHGWMPMREEKNFLLLSYEELKQDTGRTIEKICQFLGKTLEPEELNLILKNSSFQSMKENKMSNYSLLSVDYVVDKAQLLRKGVSGDWKNHFTVAQAEDFDKLFQEKMADLPRELFPWE
For the molecule B1, the binding entry is listed as “binds”.
